Article PMC9973270, “RdmA Is a Key Regulator in Autoinduction of DSF Quorum Quenching in Pseudomonas nitroreducens HS-18” (mBio, 2022)
Construct, isoform or probe ends are uncertain for at least one entry. The comparison behind a weaker result is the experiment's own reference, which may not be listed here. Tags and fusion partners may be left off the protein sequences shown.

System: T1, RdmA (Pseudomonas nitroreducens HS-18)
T1 sequence (looked up): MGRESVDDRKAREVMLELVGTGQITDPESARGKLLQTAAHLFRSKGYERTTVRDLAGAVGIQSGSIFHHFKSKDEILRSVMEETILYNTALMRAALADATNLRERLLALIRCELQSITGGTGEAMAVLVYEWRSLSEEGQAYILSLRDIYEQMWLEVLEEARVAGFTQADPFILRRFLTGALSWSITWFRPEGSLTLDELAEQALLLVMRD
Assay: EMSA
Conditions: LightShift chemiluminescent EMSA kit (buffer per manufacturer; pH and salt not stated), 10 uL, 2 nM biotin-DNA (20 fmol, 0-4 uM RdmA, recombinant protein, residues 1-211, protein details: N-terminal His6 (pET32a), label: 3'-biotin, probe letters rebuilt from the primers and the genome

“GCTTTCTCTCCCCATGGGTCCCATCTGGCCACCTTGCTCAGGGCAATTCATCGAATCGCCCCGCAAGTGCTTGTGTTGTCTGACGAAATGTAAGCCCGCGAGTGCCAACCAAGCAAGCGCTTGGCCATCCAATGGTTGGGGTAGTCATCGACTCGGGGCTTTTCAACCAAGCGCTTGCTTGGTAATGTCGATGCATCACTCAGCGTCACGGGCAGAACA (double strand) [PdmgA F1]”: binds more weakly (0.6 mM DSF preincubated with 2 uM RdmA); binds (complete shift at 1 uM RdmA).
